Paper PMC8660915, “Small molecule modulation of the Drosophila Slo channel elucidated by cryo-EM” (Nature Communications, 2021)

Target: the molecule itself
Experiment: cryo-EM structure; purified Slo (2-3 mg/ml) in 0.003% LMNG, 0.0003% CHS, 20 mM Tris-HCl pH 7.7, 320 mM KCl, 10 mM CaCl2, 10 mM MgCl2; four samples: Ca2+-bound apo, Ca2+-free apo (50 mM EDTA), with verruculogen, with emodepside; homotetramer, C4 symmetry (C2 around emodepside)

B1: Drosophila melanogaster Slowpoke (Slo), isoform J, residues 1-1180 with 13 mutations, C-terminal Rho1D4 tag (natural protein, UniProt Q03720-14 1-1180, looked up)
chain: MASGLIDTNFSSTLANGMSGCDQSTVESLADDPTDSPFDADDCLKVRKYWCFLLSSIFTFLAGLLVVLLWRAFAFVCCRKEPDLGPNDPKQKEQKASRNKQEFEGTFMTEAKDWAGELISGQTTTGRILVVLVFILSIASLIIYFVDASSEEVERCQKWSNNITQQIDLAFNIFFMVYFFIRFIAASDKLWFMLEMYSFVDYFTIPPSFVSIYLDRTWIGLRFLRALRLMTVPDILQYLNVLKTSSSIRLAQLVSIFISVWLTAAGIIHLLENSGDPLDFDNAHRLSYWTCVYFLIVTMSTVGYGDVYCETVLGRTFLVFFLLVGLAIFASCIPEIIDLIGTRAKYGGTLKNEKGRRHIVVCGHITYESVSHFLKDFLHEDREDVDVEVVFLHRKPPDLELEGLFKRHFTTVEFFQGTIMNPIDLQRVKVHEADACLVLANKYCQDPDAEDAANIMRVISIKNYSDDIRVIIQLMQYHNKAYLLNIPSWDWKQGDDVICLAELKLGFIAQSCLAPGFSTMMANLFAMRSFKTSPDMQSWTNDYLRGTGMEMYTETLSPTFIGIPFAQATELCFSKLKLLLLAIEIKGAEEGADSKISINPRGAKIQANTQGFFIAQSADEVKRAWFYCKACHEDIKDETLIKKCKCKNLATFRKGVRAVQMVGRASDITRDREDTNLLNRNVRRPNGTGNGTGGMHHMNNTAAAAAAAAAAGKQVNKVKPTVNVSRQVEGQVISPSQYNRPTSRSSGTGTQNQNGGVSLPAGIADDQSKDFDFEKTEMKYDSTGMFHWSPAKSLEDCILDRNQAAMTVLNGHVVVCLFADPDSPLIGLRNLVMPLRASNFHYHELKHVVIVGSVDYIRREWKMLQNLPKISVLNGSPLSRADLRAVNVNLCDMCCILSAKVPSNDDPTLADKEAILASLNIKAMTFDDTIGVLSQRGPEFDNLSATAGSPIVLQRRGSVYGANVPMITELVNDGNVQFLDQDDDDDPDTELYLTQPFACGTAFAVSVLDSLMSTTYFNQNALTLIRSLITGGATPELELILAEGAGLRGGYSTVESLSNRDRCRVGQISLYDGPLAQFGECGKYGDLFVAALKSYGMLCIGLYRFRDTSSSCDASSKRYVITNPPDDFSLLPTDQVFVLMQFDPGLEYKPPAVRAPAGGRGTNTQGSGVGGGGSNKDDNS
notes: synthetic gene, codon optimised for insect cells; numbers count on: NP_001014658.1 (isoform J); The final model comprises L44-G1145 with several disordered loops missing; also called Drosophila Slo; Dm Slo; source: Trichoplusia ni (T.ni) insect cells, baculovirus, purified (Rho1D4 agarose, SEC on Superose 6 increase, in LMNG/CHS); not shown: Rho1D4 (joined by a GSSG linker), C-terminal, kept
With B1 the “stoichiometry N” value was 4.
